According to paper PMC1131895:
Results are given in words; binding and its absence hold for the method and conditions named. Binding seen in cells or lysates may run through a third protein.

Amino acid sequences for entries named in this document (tags omitted).
UniProt Q03135: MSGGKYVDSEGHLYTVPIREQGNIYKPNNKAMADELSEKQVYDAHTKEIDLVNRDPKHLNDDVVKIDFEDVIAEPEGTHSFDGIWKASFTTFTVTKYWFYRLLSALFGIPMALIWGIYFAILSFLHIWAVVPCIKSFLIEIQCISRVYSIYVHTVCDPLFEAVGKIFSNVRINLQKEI

Target: DsRed-caveolin (DsRed1-cav-1) (UniProt Q03135)
Experiment: condition: only unstimulated cells (no Ca2+ ionophore, TPA or bradykinin); FRET or BRET; 2P-FLIM-FRET: lifetime of the GFP donor (two-photon excitation at 850 nm, TCSPC); CHO cells co-expressing GFP-PKC and DsRed-cav, untreated (unstimulated), fixed in 3.7% formaldehyde and mounted

binding: no binding
Substance: GFP-tagged protein kinase C alpha (PKCα) (from UniProt P17252 1-672) (enzyme)
